This is an account of results in patent publication US20060264369.

pIC50: −log10 of the molar value. For part of these data: No signal at the amounts used counts as a negative. For part of these data: Construct, isoform or probe ends are uncertain for at least one entry. For part of these data: Tags and fusion partners may be left off the protein sequences shown. For part of these data: The direction of at least one scale is not stated here.

A word on the pIC50: it is −log10 of the IC50, conventionally taken in molar units.

One data set has as its target von Willebrand factor A1 domain (human) (Homo sapiens) (UniProt P04275). The data set is described as follows: filter binding. The conditions noted are these: 100 nM protein; purified recombinant protein; single-stranded DNA.
For the sequence “CTACCTACGATCTGACTAGCGAAACACTAGGTTGGTTAGGATTGGTGTGTTCCCGCTTTGCTTACTCTCATGTAGTTCC [AMX199.G1]”, the binding signal (ratio to no protein) came out at 1.19. Turning to “CTACCTACGATCTGACTAGCGAAACACTAGGTTGGTTAGGATTGGTGTGTTTCCGCTTTGCTTACTCTCATGTAGTTCC [AMX199.H7]”, the binding signal (ratio to no protein) is 1.32. Consider “CTACCTACGATCTGACTAGCGAAACACTAGGTTGGTTAGGATTGGTGTGTTCCCGCTCTGCTTACTCTCATGTAGTTCC [AMX199.F6]”, for which the binding signal (ratio to no protein) came out at 1.37.

On to “CTACCTACGATCTGACTAGCAAGGGGATTGGCTCCGGGTCTGGCGTGCTCGGCACTTCCGGCTTACTCTCATGTAGTTCC [AMX202.A8]”, for which the binding signal (ratio to no protein) amounted to 1.27. As for “CTACCTACGATCTGACTAGCGGAACACTAGGTTGGTTAGGATTGGTGTGTTCCCGTTTTGCTTACTCTCATGTAGTTCC [AMX199.A10]”, the binding signal (ratio to no protein) was 1.25. For the sequence “CTACCTACGATCTGACTAGCGAAACACTAGGTTGGTTAGGATTGGTGTGTTTCCGTTCTGCTTACTCTCATGTAGTTCC [AMX199.F10]”, the binding signal (ratio to no protein) came out at 1.17.

In the case of “CTACCTACGATCTGACTAGCGGAATGAGAGTGCTGATGGATTGCTCAGGTCTACTGGCTGCTTACTCTCATGTAGTTCC [AMX200.D1]”, the binding signal (ratio to no protein) worked out at 1.26.

Still in this data set, the particulars now being: ribo purines, deoxy pyrimidines; 100 nM protein; purified recombinant protein.
In the case of “GGAGCGCACTCAGCCACAACTGGTTGTCGGTGATGGCATTAACGCGGACCAGGCATGTTTCGACCTCTCTGCTAGC [AMX205.G9]”, the binding signal (ratio to no protein) came to 1.3. On the same count and under the same terms, under “GGAGCGCACTCAGCCACTCAAGGGGGTCGCGTGGGGACGAAGGGTTGCAGTGTGTCGTTTCGACCTCTCTGCTAGC [AMX205.A7]” stands 1.24; under “GGAGCGCACTCAGCCACCACGGGGACGGGTAGGGCGGGCGAGGTGGTGGCATTAGCGTTTCGACCTCTCTGCTAGC [AMX203.A6]”, 1.16.

In another data set the target is von Willebrand factor full length (Homo sapiens) (UniProt P04275). The data set is described as follows: filter binding. Conditions: 20 nM protein; purified native protein; protein details: Calbiochem 681300; single-stranded DNA.
For “CTACCTACGATCTGACTAGCCAGTTCTGGGAAAAATCATTTTTTATTTCGATCGTATTTGCTTACTCTCATGTAGTTCC [AMX238.D9]”, the binding signal (ratio to no protein) turned out to be 1.22. With “CTACCTACGATCTGACTAGCGGAATGAGAATGCTGGTGGATTGCTCAGGTCTGCTGGCTGCTTACTCTCATGTAGTTCC [AMX237.E10]”, the binding signal (ratio to no protein) is 1.12.

On to “CTACCTACGATCTGACTAGCTCCAGTGTTTTATCCAATAACCGTGCGGTGCCTCCGTGATGCTTACTCTCATGTAGTTCC [AMX236.F8]”, for which the binding signal (ratio to no protein) was found to be 1.14. In the case of “CTACCTACGATCTGACTAGCCAGTTCTGGGAAAAATTATTTTTTTATTTCGATCGTATTTGCTTACTCTCATGTAGTTCC [AMX236.C9]”, the binding signal (ratio to no protein) was determined as 1.24. Consider “CTACCTACGATCTGACTAGCGGAATGAGTATGCTGGTGGATTGCTCAGGTCTGCTGGCTGCTTACTCTCATGTAGTTCC [AMX238.F6]”, for which the binding signal (ratio to no protein) was 1.18. For “CTACCTACGATCTGACTAGCCAGTTCTGGGAAAAATTATTTTTTTATTTCGATCGTATATGCTTACTCTCATGTAGTTCC [AMX238.A12]”, the binding signal (ratio to no protein) was 1.23. Consider “CTACCTACGATCTGACTAGCCCCCACTTATCGTGTACCTTATGATATGTCGAATACTCTTGCTTACTCTCATGTAGTTCC [AMX236.F7]”, for which the binding signal (ratio to no protein) worked out at 1.18. On the same count and under the same terms, with “CTACCTACGATCTGACTAGCTTGGTAGCGACCCTGTGGAGCTGCGGTTTGGTCGACGTCAGCTTACTCTCATGTAGTTCC [AMX236.E6]” the figure was 1.31; with “CTACCTACGATCTGACTAGCAAGGGGATTGGCTCCGGGTCTGGCGTGCTTGGCATCTTTGGCTTACTCTCATGTAGTTCC [AMX238.F7]”, 1.2; with “CTACCTACGATCTGACTAGCTTGGTAGCGACTTTGTGGAGCTGCGGTTTGGTCGACATCAGCTTACTCTCATGTAGTTCC [AMX237.H8]”, 1.21. On the same count and under the same terms, under “CTACCTACGATCTGACTAGCTCCAGTGTTTTATCCAATAACCGTGCGGGGCCTCCGTGATGCTTACTCTCATGTAGTTCC [AMX238.G6]” stands 1.25.

On to “CTACCTACGATCTGACTAGCTCCAGTGTTTTATATAATAACCGTGCGGTGCCTCCGTGATGCTTACTCTCATGTAGTTCC [AMX237.D11]”, for which the binding signal (ratio to no protein) came out at 1.16.

Take “CTACCTACGATCTGACTAGCTCCAGTGTTTTATTCAATAACCGTGCGGTGCCTCCGTGATGCTTACTCTCATGTAGTTCC [AMX237.C7]”: the binding signal (ratio to no protein) turned out to be 1.15. Still for that read-out and setting: under “CTACCTACGATCTGACTAGCTTGTCGCACTTTTGGTTGGTCTGGTTGGTTTTAAGTGCGCTTACTCTCATGTAGTTCC [AMX238.H9]” stands 1.11; under “CTACCTACGATCTGACTAGCTCCAGTGTTTTATCTAATAACCGTGCGGTGCCTCCGTGATGCTTACTCTCATGTAGTTCC [AMX237.F6]”, 1.2. On the same count and under the same terms, under “CTACCTACGATCTGACTAGCGGAATGAGAATGCAGGTGGATTGCTCAGGTCTGCTGGCTGCTTACTCTCATGTAGTTCC [AMX237.B12]” stands 1.13. Same read-out and setting: with “CTACCTACGATCTGACTAGCTCAAAGTATTACTTATTGGCAATAAGTCGTTTACTCTATAGCTTACTCTCATGTAGTTCC [AMX238.A3]” the figure was 1.36.

The same data set, now with this note: 2'-OMe C24 C32 C33, 3'-idT; no binding; purified native protein; protein details: Calbiochem 681300; label: 5'-32P; variant of ARC1172.
In the case of “GGCGTGCAGTGCCTTCGGCCGTGCGGTGCCTCCGTCACGCC [ARC1242]”, the binding result is “no binding”.

The same data set, now with this note: 2'-OMe G25 G26 G34, 3'-idT; no binding; purified native protein; protein details: Calbiochem 681300; label: 5'-32P; variant of ARC1172.
For the sequence “GGCGTGCAGTGCCTTCGGCCGTGCGGTGCCTCCGTCACGCC [ARC1241]”, the binding result is “no binding”.

The same data set, now with this note: 2'-OMe at 24-26 and 32-34, 3'-idT; no binding; purified native protein; protein details: Calbiochem 681300; label: 5'-32P; variant of ARC1172.
For the sequence “GGCGTGCAGTGCCTTCGGCCGTGCGGTGCCTCCGTCACGCC [ARC1243]”, the binding result is given as “no binding”.

Staying with this data set, now noted: 2'-OMe/deoxy composite with mT, 3'-idT; no binding; negative control; purified native protein; protein details: Calbiochem 681300; label: 5'-32P; variant of ARC1368.
Take “GCGUGCAGUGCCUUCGGCCGTGCGGTGCCUCCGUCACGC [ARC1525]”: the binding result was “no binding”.

The data set is the same for the next values; noted with them: internal PEG spacer replacing TGCCT between CGTGCGG and CCGTC, 3'-idT; no binding; purified native protein; protein details: Calbiochem 681300; label: 5'-32P; single-stranded DNA; variant of ARC1027.
With “GGCGTGCAGTGCCTATTCTAGGCCGTGCGGCCGTCACGCC [ARC1030]”, the binding result is reported as “no binding”.

The data set is the same for the next values; noted with them: two internal PEG spacers, 3'-idT; no binding; purified native protein; protein details: Calbiochem 681300; label: 5'-32P; single-stranded DNA; variant of ARC1027.
Take “GGCGTGCAGTGCCTAGGCCGTGCGGCCGTCACGCC [ARC1031]”: the binding result is reported as “no binding”.

The next data set has as its system von Willebrand factor A1 domain (Oryctolagus cuniculus). The data set is described as follows: filter binding. Conditions: internal PEG spacer replacing TGCCT between CGTGCGG and CCGTC, 3'-idT; no binding; purified recombinant protein; protein details: 6-His; label: 5'-32P; single-stranded DNA; variant of ARC1027.
Take “GGCGTGCAGTGCCTATTCTAGGCCGTGCGGCCGTCACGCC [ARC1030]”: the binding result is on record as “no binding”.

Still in this data set, the particulars now being: two internal PEG spacers, 3'-idT; no binding; purified recombinant protein; protein details: 6-His; label: 5'-32P; single-stranded DNA; variant of ARC1027.
“GGCGTGCAGTGCCTAGGCCGTGCGGCCGTCACGCC [ARC1031]”: the binding result is “no binding”.

Another data set has as its target von Willebrand factor full length (Homo sapiens) (UniProt P04275). The data set is described as follows: flow cytometry. The conditions noted are these: 2'-F pyrimidines; botrocetin-induced vWF binding to platelets; purified native protein; protein details: Calbiochem 681300.
In turn, “GGACCACCCUCGCAAGCAUUUUAAGAAUGACUUGUGCCGCUGGUCC [rRfY minimer SEQ 169]” showed a pIC50 of 8.16.

The sequence “GGACCACCCUCGCAACGAGAGUUGUGCCGCUGGUCC [rRfY minimer SEQ 174]” gave a pIC50 of 8.18.

Take “GGAGCGCACUCAGCCACCCUCGCAAGCAUUUUAAGAAUGACUUGUGCCGCUGGCUG [rRfY minimer SEQ 165]”: the pIC50 is 8.19.

“GGACCACCCUCGCAAGCAUUGAGAAAUGACUUGUGCCGCUGGUCC [rRfY minimer SEQ 172]” had a negative-log IC50 (pIC50) of 8.37.

Staying with this data set, now noted: ribo purines, deoxy pyrimidines; botrocetin-induced vWF binding to platelets; purified native protein; protein details: Calbiochem 681300.
The sequence “GGAGCGCACTCAGCCACACGACATTGGCGGGTTGTAATTACCACGCATGGCTG [rRdY minimer SEQ 186]” had a pIC50 of 8.89.

The sequence “GGAGCGCACTCAGCCACGGGGTGGGTAGACGGCGGGTATGTGGCT [rRdY minimer SEQ 177]” had a pIC50 of 8.52.

For another data set, the system named is T1, von Willebrand factor A1 domain (rabbit) (Oryctolagus cuniculus).
T1 sequence (limits assumed): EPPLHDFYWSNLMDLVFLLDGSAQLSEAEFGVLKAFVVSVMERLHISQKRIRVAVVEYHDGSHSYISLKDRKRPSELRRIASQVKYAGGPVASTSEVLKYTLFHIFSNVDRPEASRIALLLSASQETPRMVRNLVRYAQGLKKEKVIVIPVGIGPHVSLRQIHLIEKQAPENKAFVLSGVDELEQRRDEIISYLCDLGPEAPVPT
The data set is described as follows: flow cytometry. The conditions noted are these: 2'-F pyrimidines; botrocetin-induced rabbit A1 binding to platelets; purified recombinant protein; protein details: 6xHis. On the technique in general: In flow cytometry, cells or beads pass a laser one at a time.
Consider “GGACCACCCUCGCAACGAGAGUUGUGCCGCUGGUCC [rRfY minimer SEQ 174]”, for which the pIC50 was 8.17.
